According to US7414113B2, “Antibody that specifically binds to Candida kefyr Cytosine deaminase” (Onyx Pharmaceuticals, Inc., priority 2002, dated 2008):
Several values for one entry are separate records, joined by “and”; a condition that tells them apart may be missing. Identical values can stand only once.

System: HEK 293 cells
Assay: Expression of CD constructs, anti-FLAG Western blot of cell lysate
Format: cell-based, Human
Settings: FIG. 8
Description: Human embryonic kidney cells (HEK 293 cells) were transiently transfected with one of these constructs: CK-CD-FLAG, CK-CD, E-CD-FLAG, E-CD or vector alone (pCMV-tag4C). […] Cells co-transfected with a construct and a GFP containing plasmid indicated approximately equivalent levels of transfection.
The experimental details are as follows: 293 cells in 10 cm dishes were transfected with 10 or 15 ÿg of CD constructs using FuGene® 6 (ROCHE™) at a DNA/FuGene® ratio of 1:3. No carrier DNA was used. Cell lysates were collected in 1 ml of lysis buffer (20 mM Tris-Cl, pH8, 150 mM NaCl, 1% Triton X-100) after 48 hours by three freeze/thaw cycles using dry ice for 10 minutes and room temperature for 10 minutes.
30 μl of cell lysate was separated by 12% SDS-PAGE, transferred to membrane and then Western blotted with anti-flag monoclonal antibody at a dilution of 1:5000 (SIGMA™). The membranes were incubated with HRP conjugated goat-anti-mouse secondary antibody (1:10000, AMERSHAM™) and the signal visualized with an ECL system (AMERSHAM™). […] Similar results were obtained (not shown) when the cells were transfected with 2 μg of each DNA construct. Experiments are planned to test a humanized C. kefyr gene and it is expected that the humanized gene will improve the expression levels. […]

B1: E-CD-FLAG: E. coli cytosine deaminase with FLAG tag (protein, UniProt P25524 2-427, looked up)
Cytosine deaminase: SNNALQTIINARLPGEEGLWQIHLQDGKISAIDAQSGVMPITENSLDAEQGLVIPPFVEPHIHLDTTQTAGQPNWNQSGTLFEGIERWAERKALLTHDDVKQRAWQTLKWQIANGIQHVRTHVDVSDATLTALKAMLEVKQEVAPWIDLQIVAFPQEGILSYPNGEALLEEALRLGADVVGAIPHFEFTREYGVESLHKTFALAQKYDRLIDVHCDEIDDEQSRFVETVAALAHHEGMGARVTASHTTAMHSYNGAYTSRLFRLLKMSGINFVANPLVNIHLQGRFDTYPKRRGITRVKEMLESGINVCFGHDDVFDPWYPLGTANMLQVLHMGLHVCQLMGYGQINDGLNLITHHSARTLNLQDYGIAAGNSANLIILPAENGFDALRRQVPVRYSVRGGKVIASTQPAQTTVYLEQPEAIDYKR
modifications: FLAG tag
Western blot with anti-FLAG
  amount of E-CD-FLAG lysate equivalent to 30 μl of CK-CD-FLAG lysate: ~3 µL and ~4 µL
Second Western blot
  fold better expression of E-CD-FLAG than CK-CD-FLAG: about 7.5 fold
